The text below walks through data of PubChem BioAssay (NCATS).

The chains behind the UniProt entries cited, without tags or fusion partners. Where a name states a change or a piece, a line headed by the entry shows the natural chain unless it says otherwise.
UniProt P40261: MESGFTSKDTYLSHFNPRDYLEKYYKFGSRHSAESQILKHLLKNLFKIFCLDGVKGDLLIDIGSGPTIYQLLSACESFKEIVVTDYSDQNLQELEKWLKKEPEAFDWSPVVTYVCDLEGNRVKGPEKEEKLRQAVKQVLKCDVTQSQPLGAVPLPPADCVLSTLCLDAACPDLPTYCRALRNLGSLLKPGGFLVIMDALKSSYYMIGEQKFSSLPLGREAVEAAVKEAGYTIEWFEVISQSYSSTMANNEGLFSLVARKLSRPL
UniProt P50135: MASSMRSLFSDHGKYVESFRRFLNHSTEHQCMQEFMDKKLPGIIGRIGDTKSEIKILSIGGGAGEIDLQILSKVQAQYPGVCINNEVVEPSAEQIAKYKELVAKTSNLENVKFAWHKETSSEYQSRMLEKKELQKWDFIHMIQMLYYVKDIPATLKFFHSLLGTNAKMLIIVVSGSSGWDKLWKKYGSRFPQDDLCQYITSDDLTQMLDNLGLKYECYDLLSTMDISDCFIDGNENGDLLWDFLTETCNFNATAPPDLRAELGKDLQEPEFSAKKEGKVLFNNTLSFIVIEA

The other results are listed elsewhere or left out. Further columns of the screen follow, without active or inactive calls. For some of these results: Most of these compounds were active or inconclusive in the main read-out, so they are no random draw. The note in brackets gives the kind of curve behind each potency; many fits are weak.

Experiment [1] can be described thus: qHTS assay for small molecule antagonists of vitamin D receptor signaling (AID 588541). Conditions: HEK293T VDR-UAS-bla, beta-lactamase ratio, antagonist mode; measured here: W460 blue channel (cell viability). A general note: qHTS replaces the single test concentration by a dilution series.
The nature of experiment [2]: A High-Content qHTS Against Drug Library for the Identification of Small Molecules that Inhibit DYT1 Early Onset Primary Dystonia-Associated Cell Pathology (AID 1645839). Conditions: HEK293 Flp-In EGFP-delE TorsinA, punctate imaging, 48 h; measured here: cell count cytotoxicity. In a few lines: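 Cells were seeded and left for 24 h, then dosed with compound alongside tetracycline induction of mutant EGFP-TorsinA. They were incubated for 48 h, fixed in 4% paraformaldehyde, permeabilized and imaged for mislocalization (%pathology) and cell count.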

Experiment [3] is described as follows: NCATS anti-infectives library activity on the primary C. elegans qHTS viability assay (AID 1745855). As to conditions: C. elegans worm area imaging. A digest of the protocol:
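GFP read-out by 488 nm laser cytometry at day 0, 3 and 7, gated on object perimeter, area and peak intensity, scored viability of PE254-GFP-FLuc worms exposed to compound in S medium with bacterial capsules at 21 °C.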

Experiment [4] is described as follows: qHTS Assay for Modulators of Human Peripheral Myelin Protein 22 (PMP22) Expression/Activity (AID 1967). Conditions: Cell-based PMP22 reporter, dual-color luciferase ratio. A digest of the protocol: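 Mouse MSC80 Schwann line, Pmp22 promoter–CBG68 reporter, EF-alpha–CBR internal control. 24h compound exposure, 37 °C/5% CO2, DMEM + 10% FBS. Readout: corrected green/red luminescence ratio, normalized to untreated cells; concentration-response curves fitted and classified.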

Experiment [5] is described as follows: qHTS Validation Assay to Find Inhibitors of Chronic Active B-Cell Receptor Signaling (AID 485345). Conditions: ABC-DLBCL cells, chronic BCR signaling reporter. In a few lines:
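TMD8 ABC-DLBCL cells stably carrying doxycycline-inducible IkappaBalpha–green luciferase fusion plus unfused red luciferase; compounds 46 uM to 3 nM, 4 h at 37C with doxycycline. Corrected green/red luminescence ratio normalized to 10 uM MG-132 and basal cell wells; curves fitted.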

Experiment [6] is described as follows: qHTS drug screen for cell cycle checkpoint inhibitors in PARPi-resistant BRCA-mutant ovarian cancer cell lines. (AID 1963452). As to conditions: PEO1/OlaR viability, CellTiter-Glo luminescence, 96 h. In a few lines:
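PEO1, PEO4 and PEO1/OlaR ovarian cancer cells, 600 per well, exposed 96 h at 37C to a dilution series. Viability read by CellTiter-Glo luminescence, normalized to DMSO and empty wells; activity summarized as Z-AUC.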

The nature of experiment [7]: qHTS for identification of novel therapeutic agents for treatment of microphthalmiaassociated transcription factor (MiT) renal cell carcinoma (RCC) (AID 1963991). As to conditions: CellTiter-Glo, 48 h; for z-score: stronger effect = lower value. In a few lines: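 Three TFE3-fusion RCC lines (UOK109, UOK124, UOK145), 500 cells/well in complete medium, were treated with MIPE 4.0 compounds for 48 hours at 37 C. Viability was by CellTiter-Glo luminescence, normalized to DMSO (100%) and empty wells (0%); curves fitted over 11 concentrations.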

Experiment [8] addresses Nicotinamide N-methyltransferase (Homo sapiens) (UniProt P40261). In words: Confirmatory Screen for Target Class Profiling of Small Molecule Inhibitors of Methyltransferases (AID 1745852). Conditions: MTase-Glo luminescence, SAH detection, recombinant enzyme; measured here: NNMT inhibition potency.
Experiment [9] deals with Histamine N-methyltransferase (Homo sapiens) (UniProt P50135). The description is as above. Conditions: MTase-Glo luminescence, SAH detection, recombinant enzyme; measured here: HNMT inhibition potency.
Setting [10] is: day 7, measured here: worm number.
The mark [11] stands for this setting: measured here: CBG/CBR ratio read-out.
[12] abbreviates: measured here: PEO1 parental viability.
[13] abbreviates: TFE3-RCC UOK109 viability, measured here: UOK109 Z-AUC.
Where [14] appears, read: TFE3-RCC viability, measured here: UOK124 Z-AUC.
Where [15] appears, read: TFE3-RCC viability, measured here: UOK124 cell viability.
Where [16] appears, read: TFE3-RCC viability, measured here: UOK145 Z-AUC.
Setting [17] is: TFE3-RCC viability, measured here: UOK145 cell viability.

A word on the AC50: it is the midpoint of the concentration-response curve, whichever way the signal moves. On to `CCCCCCCCCCCCCCCC[n+]1ccccc1`, for which the AC50 in [1] is 35.5 µM [rising, single point]; in experiment [2], 35.5 µM [falling, single point]; in experiment [3] (setting [10]), 23 µM [falling, single point].

In the case of `CN(C)CCCN1c2ccccc2Sc2ccccc21`, the AC50 in experiment [4] (measured here: green reporter channel AC50, mouse Pmp22 promoter in mouse Schwann cells) was 75.7 µM [falling, partial curve]; in experiment [4] (measured here: red reporter channel AC50, EF-alpha promoter control reporter in MSC80 mouse Schwann cells), 84.9 µM [falling, partial curve]; in experiment [5] (setting [11]), 20.6 µM [falling, single point]; in experiment [5] (measured here: CBR control luciferase (viability counter)), 25.9 µM [falling, partial curve]; in [2], 3.16 µM [falling, partial curve]; in experiment [3] (day 7, measured here: worm number, day 3), 0.728 µM [falling, full curve, poor fit].

On to `COC1=C(OC)C(=O)C(CCCCCCCCCCO)=C(C)C1=O`, for which the AC50 was 10 µM [falling, partial curve, poor fit] in experiment [2]; 1.55 µM [falling, partial curve, poor fit] in experiment [6] (setting [12]); 29.6 µM [falling, single point] in experiment [7] (setting [15]). Moreover, the values for the z-score in [7] (setting [13]), in experiment [7] (setting [14]) and in experiment [7] (setting [16]) were 1.24, -0.231 and 0.815, respectively.

By IC50 is commonly meant the point on the concentration scale where inhibition reaches its midpoint. For the molecule `OCCN1CCN(CCCN2c3ccccc3Sc3ccc(C(F)(F)F)cc32)CC1`, the AC50 in [5] (setting [11]) is 18.4 µM [falling, single point]; in experiment [2] it was 0.562 µM [falling, full curve, poor fit]; in [6] (setting [12]), 13.8 µM [falling, partial curve]; in experiment [6] (measured here: PEO4 viability), 19.5 µM [falling, partial curve]; in [7] (setting [15]), 20.9 µM [falling, partial curve]; in experiment [7] (setting [17]), 29.6 µM [falling, single point]. In addition, the IC50 in experiment [8] is 27.3 µM [falling, partial curve]. For the same molecule, the z-score is -0.621 in experiment [7] (setting [13]), -0.0598 in [7] (setting [14]) and -0.125 in [7] (setting [16]).

For `O[C@@H](COc1cccc2ncccc12)CN1CCN(C2c3ccccc3[C@@H]3[C@H](c4ccccc42)C3(F)F)CC1` (some centres not stated), the AC50 in experiment [2] is 6.31 µM [falling, full curve, poor fit]; in experiment [6] (setting [12]), 19.5 µM [falling, partial curve]; in [6] (measured here: PEO4 viability), 13.8 µM [falling, partial curve]. Besides, the z-score in experiment [7] (setting [13]) is 0.455; in experiment [7] (setting [14]), -0.103; in [7] (setting [16]), -0.195.

Take `Cc1ccc(-n2[nH]c(C)c(N=Nc3cccc(-c4cccc(C(=O)O)c4)c3O)c2=O)cc1C`: the AC50 in experiment [2] is 1.58 µM [falling, partial curve, poor fit]; in experiment [6] (measured here: PEO4 viability), 0.871 µM [falling, full curve, poor fit]; in [7] (setting [15]), 20.9 µM [falling, partial curve]; in experiment [7] (setting [17]) it was 16.6 µM [falling, partial curve]. Also, the z-score amounted to 0.498 in [7] (setting [13]), 0.25 in experiment [7] (setting [14]) and 0.308 in experiment [7] (setting [16]).

For `CCCCc1oc2ccc(NS(C)(=O)=O)cc2c1C(=O)c1ccc(OCCCN(CCCC)CCCC)cc1`, the AC50 was 1.41 µM [falling, full curve, poor fit] in experiment [2]; 12.3 µM [falling, partial curve] in experiment [6] (setting [12]); 8.71 µM [falling, partial curve] in experiment [6] (measured here: PEO4 viability); 11.8 µM [falling, partial curve] in experiment [7] (setting [15]); 33.2 µM [falling, single point] in [7] (setting [17]). For the same molecule, the z-score was 0.175 in experiment [7] (setting [13]), -0.344 in experiment [7] (setting [14]) and 1.59 in experiment [7] (setting [16]).

For the molecule `Cc1ccc(Nc2nccc(N(C)c3ccc4c(C)n(C)nc4c3)n2)cc1S(N)(=O)=O`, the AC50 in [2] was 2.24 µM [rising, partial curve, poor fit]; in [6] (setting [12]) it was 1.95 µM [falling, partial curve]; in experiment [7] (setting [15]), 16.6 µM [falling, partial curve]; in experiment [7] (setting [17]) it was 23.5 µM [falling, single point]. Moreover, the IC50 in experiment [9] is 13.6 µM [falling, partial curve]. Also, the z-score in experiment [7] (setting [13]) worked out at 0.758; in experiment [7] (setting [14]), 0.321; in experiment [7] (setting [16]) it was 0.561.

On to `CCCCCN=C(N)N/N=C/c1c[nH]c2ccc(OC)cc12`, for which the AC50 is 25.1 µM [falling, single point] in experiment [2]; 20.5 µM [falling, partial curve, poor fit] in [3] (setting [10]); 25.8 µM [falling, single point] in experiment [3] (day 7, measured here: worm area, day 3); 11 µM [falling, partial curve] in experiment [6] (setting [12]); 4.36 µM [falling, full curve] in [6] (measured here: PEO4 viability).

In the case of `COC(=O)Nc1nc2ccc(S(=O)c3ccccc3)cc2[nH]1` (configuration not stated), the AC50 in experiment [2] is 0.316 µM [falling, full curve, poor fit]; in [6] (setting [12]), 12.3 µM [falling, partial curve]; in experiment [6] (measured here: PEO4 viability), 15.5 µM [falling, partial curve, poor fit]; in [7] (setting [15]), 18.7 µM [falling, partial curve]; in [7] (setting [17]), 9.35 µM [falling, partial curve, poor fit]. Also, the z-score is -0.172 in experiment [7] (setting [13]), 0.267 in experiment [7] (setting [14]) and -3.41 in [7] (setting [16]).
